## Screening data, single-dose tests

Data taken from ChEMBL document CHEMBL3988442, “University of Dundee, Small-Polar-MMV Screening Library” (2021).

Mtb cholesterol medium: 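Growth of Mycobacterium tuberculosis over 4 days (cholesterol / DPPC medium with tyloxapol); the read-out is not stated. Compounds at 50 µM. Direction is inferred from retests: higher values go with more growth inhibition. Size under these conditions: about 69,000 compounds, about 370 of them at 50% or above in at least one test.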
Mtb glucose medium: 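Phenotypic screen: M. tuberculosis growth, glucose 7H9 medium, 3 days; the read-out is not stated. Concentration: 50 µM. The record gives no direction; compounds that gave an IC50 in retests scored well above the rest, so higher reads as more growth inhibition. Size under these conditions: about 69,000 compounds, about 760 of them at 50% or above in at least one test.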

Each number is a percent effect as filed. The controls that fix the scale are not given in the record; negative values are as filed. The compounds are a random part of those screened. Two or more numbers in one place are separate tests of the same structure; such repeats can differ widely.

| # | structure | Mtb cholesterol medium | Mtb glucose medium |
|---|---|---|---|
| 1 | `[H][C@@]12CNC(=O)N1CCN(Cc1ccnc3ccccc13)C2` | -1.887% | -17.35% and -11.8% |
| 2 | `CCc1nc(CC(=O)N2CCCC2Cn2cccn2)cs1` (stereo not drawn) | 2.579% | 0.5478% |
| 3 | `CC1(C(=O)NC2CCCC2)CN(c2cnccn2)CCO1` (stereo not drawn) | 4.079% | 8.494% |
| 4 | `CN(Cc1noc(C2CC2)n1)C1CCN(Cc2ccncc2)C1` (stereo not drawn) | -13.25% | -7.913% |
| 5 | `O=C(c1cccc(C(F)(F)F)c1)N1CC(=O)N(C2CCC2)CC(O)C1` (stereo not drawn) | 11.85% | 17.05% |
| 6 | `C[C@@H]1CN(S(=O)(=O)c2ccc(F)cc2F)C[C@]1(C)O` | 0.9411% | 24.68% |
| 7 | `CSc1cccc(CN(C)C(=O)CN2CCN(c3ncccn3)CC2)c1` | -7.019% | 11.02% |
| 8 | `CN(C)CCN1CCOCC12CCN(C(=O)C1CC1)CC2.O=C(O)C(F)(F)F.O=C(O)C(F)(F)F` | 7.306% | 11.64% |
| 9 | `Cc1cc(C(F)(F)F)nc(CCNC(C)Cn2nc(C)cc2C)n1` (stereo not drawn) | -20.16% | 0.3996% |
| 10 | `Cc1csc(CNC(=O)Nc2cc(C(F)(F)F)c[nH]c2=O)n1` | 1.103% | 3.229% and -4.913% |
| 11 | `Cc1ccc(C(C)NC(=O)CNCCn2cccn2)cc1C` (stereo not drawn) | 10.61% | 31.56% |
| 12 | `Cc1cnn(C2CCCN(C(=O)c3ccc(Cn4ccnc4)cc3)C2)c1` (stereo not drawn) | -15.93% | -35.45% |
| 13 | `COc1cc(C)ccc1OCCC(=O)N1CCCC(n2cncn2)C1` (stereo not drawn) | -3.124% | 6.328% |
| 14 | `Cc1cc(S(=O)(=O)N2C[C@H](C3CC3)[C@@H](N)C2)c(C)s1` | -0.1338% | -12.61% |
| 15 | `CN1CC(=O)N(c2ccsc2)CC12CCN(S(C)(=O)=O)C2.O=C(O)C(F)(F)F` (stereo not drawn) | -2.283% and 20.14% | 1.331% |
| 16 | `O=C(O)c1ccc(CNC(=O)C2CCN(C(=O)C3CCC3)CC2)s1` | -0.5421% | -15.21% |
| 17 | `CCS(=O)(=O)NC1CCc2c(ccc(=O)n2CC2CC2)C1` (stereo not drawn) | -9.665% and -19.32% | -37.66% |
| 18 | `CN(C)Cc1nnc(C2CCCN(c3ncccc3F)C2)n1C` (stereo not drawn) | -22.93% | -21.05% and -6.052% |
| 19 | `CC1CCN(CCNC(=O)c2ccn(-c3ccccc3)n2)CC1` | 9.509% | 14.59% |
| 20 | `Brc1cnc(NCCCOCC2CCOCC2)nc1` | 5.69% | 29.7% |
| 21 | `CN1CCCC1CCNC(=O)c1ccccc1-n1cnc(CN)c1` (stereo not drawn) | -6.748% and 18.52% | 9.369% |
| 22 | `CCc1nc2ccccc2c(=O)n1CC1(O)CCN(CC(=O)OC)CC1` | 1.566% | 9.378% |
| 23 | `Cc1cc(C)n(CC2CN(CC3CCCC3)CCO2)n1` (stereo not drawn) | 16.15% | 16.34% |
| 24 | `CCNC(=O)CN1CCCN(C(=O)C2CCCc3[nH]ncc32)CC1` (stereo not drawn) | -9.228% | -6.147% |
| 25 | `CC1CCN(CCCNS(=O)(=O)c2cccc(F)c2)CC1.Cl` | -33.21% | -13.09% |
| 26 | `CNc1ccc(CC2CCCN(C(=O)c3cncnc3C)C2)nn1` (stereo not drawn) | -9.976% | -5.713% |
| 27 | `CC(=O)N1CC(=O)N(c2cccnc2)CC12CCN(Cc1nccs1)C2.O=C(O)C(F)(F)F.O=C(O)C(F)(F)F` (stereo not drawn) | -7.551% | 8.875% and -2.597% |
| 28 | `COc1ccc2nc3n(c2c1)[C@@H](CNC(=O)c1cncnc1)COC3` | -21.89% | -10.13% and -27.1% |
| 29 | `NC(=O)CCN1CCC(C(=O)c2cc(F)ccc2F)CC1` | 3.065% | 6.15% and -4.951% |
| 30 | `Cn1nnc2c(sc3nc(N4CCOCC4)c4c(c32)CCC4)c1=O` | -27.74% | -7.77% |
| 31 | `C[C@@H]1CN(C(=O)c2ccc(C#N)nc2)C[C@@]1(O)C1CC1` | -7.547% | 18.19% |
| 32 | `COC(=O)c1ccc(CNC(=O)CN2C[C@@H](NC(C)=O)[C@H](C(C)C)C2)o1` | -25.59% | -10.52% |
| 33 | `Cc1ccccc1OCCSc1nnc(CC2CCS(=O)(=O)C2)n1C` (stereo not drawn) | -17.82% | 8.231% and -0.4442% |
| 34 | `COc1ccc(CCN2CCCC(n3cncn3)C2)cc1` (stereo not drawn) | -6.277% | -5.869% and 12.32% |
| 35 | `CC[C@@H](C)[C@H](NC(=O)Cn1ccc2c(Cl)cccc21)C(=O)O` | -36.05% | 2.506% |
| 36 | `CCNC(=O)[C@@H]1C[C@H](N)CN1Cc1ccc2cccc(Cl)c2n1` | 8.178% | 28.38% |
| 37 | `CCNC(=O)NCc1ccccc1NS(=O)(=O)c1ccccc1` | 20.09% and -7.81% | 14.74% |
| 38 | `Cc1cnn(CC2CN(Cc3nc(N)c4ccccc4n3)CCO2)c1` (stereo not drawn) | -36.44% | -22.76% |
| 39 | `CN(Cc1cccc(F)c1)C(=O)CS(=O)(=O)Cc1ccc(Cl)c(Cl)c1` | 24.67% | 40.1% |
| 40 | `Cc1nc(O)cc(CN2C[C@H](NC(=O)C3CCCC3)[C@@H](C3CC3)C2)n1` | 11.5% | 20.4% and 2.722% |
| 41 | `O=C(Cn1nc(C(F)(F)F)c(Cl)c1C1CC1)NN1CCOCC1` | -6.441% | -14.12% |
| 42 | `Cc1c(C(=O)NCCC(=O)N2CCCC2)cccc1-c1ccccn1` | 15.66% | 16.57% |
| 43 | `N#Cc1c(Cl)nsc1NCCN1CCOCC1` | 9.72% | -22.55% and 0.04145% |
| 44 | `COc1ccc(CCC(=O)N2CCCC2Cn2cc(C)cn2)cc1F` (stereo not drawn) | -8.302% | 20.2% |
| 45 | `Cc1nc(CN2CCCC(NCc3csc(C(C)(C)C)n3)C2)no1` (stereo not drawn) | -1.246% | -18.03% |
| 46 | `CC(C)(Oc1ccc(C(N)=O)cc1)C(=O)N(CCC#N)C1CC1` | -4.152% | 19.09% |
| 47 | `CCN(CC)S(=O)(=O)NCCc1cc(C)ccc1OC` | -12.8% | -0.7897% |
| 48 | `O=S(=O)(c1c(F)cccc1F)N1CCC(Cn2cccn2)CC1` | -0.8971% | 9.967% |
| 49 | `[H][C@]12CC[C@]([H])(C1)N(C(=O)c1cccnc1-c1ccoc1)C2` | -5.183% and -12.6% | 13.18% |
| 50 | `Cc1nn(C)c(Cl)c1CNCc1cccnc1N1CCOCC1.Cl` | 0.1233% | -2.3% and 23.54% |
| 51 | `COc1cccc(CNCc2ccc(F)cc2Cl)c1O` | 13.42% | 1.327% and 25.4% |
| 52 | `NC(=O)CSCCC(=O)NCC1CC1` | -6.677% and 1.403% | -7.905% |
| 53 | `O=C(O)CCc1cc2n(n1)CCCN(C(=O)c1ccc3cc[nH]c3c1)C2` | 15.39% | 1.312% |
| 54 | `Cc1nccn1-c1ccc(NS(=O)(=O)c2cnn(C(C)C)c2)cn1` | -26.5% | -51% |
| 55 | `CS(=O)(=O)NCc1ncn2c1CN(C(=O)CC1CCCC1)CCC2` | -7.942% | 8.71% |
| 56 | `COc1ccccc1-n1c(O)cc(C)c(C#N)c1=O` | 8.467% | -6.489% |
| 57 | `CCc1nc(C2CCCN2C(=O)c2csc(COC)n2)no1` (stereo not drawn) | -10.25% | -6.993% |
| 58 | `CC(c1ccc2c(c1)OCO2)N1Cc2nc(N(C)C)ncc2C1=O` (stereo not drawn) | -4.109% | 1.837% |
| 59 | `CN1CCN(CC2(O)CCCN(C(=O)Cc3cccc(O)c3)CC2)CC1` (stereo not drawn) | 6.968% | 2.276% |
| 60 | `Cc1nn(C(C)C)c2cnn(CC(=O)N3CCSCC3)c12` | -18.65% | -20.82% |
| 61 | `CC(C)CNC(=O)C[S+]([O-])Cc1csc(C2CCCCC2)n1` (stereo not drawn) | -16.43% | -11.42% |
| 62 | `c1cnn(CC2CCCCN2Cc2nc(-c3ccsc3)no2)c1` (stereo not drawn) | 7.903% | 6.566% |
| 63 | `COc1ccc(NC(=O)N2CCCCCC2c2ccncc2)cn1` (stereo not drawn) | 13.2% | -10.68% |
| 64 | `CCOc1cc(CNC(=O)N2CCC(Cc3cnn(C)c3)C2)ccn1` (stereo not drawn) | 3.694% | 5.339% |
| 65 | `CCN(Cc1ccncc1)CC1(O)CCN(C(=O)c2cnn(C)c2)C1` (stereo not drawn) | 9.985% | 5.334% |
| 66 | `Cc1nonc1OCCNC(=O)COc1ccc(F)cc1F` | 14.48% | 10.89% and 43.67% |
| 67 | `O=C1C(n2nnc(-c3cccs3)n2)CCN1CC(F)(F)F` (stereo not drawn) | 13.76% | 38.14% |
| 68 | `CCCNS(=O)(=O)Cc1ccc(Br)cc1` | -6.253% | 16.76% |
| 69 | `Cc1cnn(CCNCC(O)COc2ccc(Cl)cc2)c1` (stereo not drawn) | 23.7% | 27.98% |
| 70 | `CC(C)C[C@@H]1N[C@H](C(=O)NC2CCOCC2)Cc2c[nH]c3cccc1c23` | -23.83% | 4.876% and -20.65% |
| 71 | `O=C1N(c2ccccc2)Cc2nc(=O)[nH]n21` | -4.462% | 8.568% |
| 72 | `Cc1ccn(-c2ccccc2NCc2cccnc2C)n1` | 25.52% | 25.47% and 29.05% |
| 73 | `COCC(=O)N1CCC(c2nc3ccc(N4CCCC4)cn3n2)CC1.O=C(O)C(F)(F)F` | -12.32% | -13.83% |
| 74 | `O=S(=O)(NCC1(O)CCCC1)c1ccccc1Br` | -12.07% | -15.51% and 1.575% |
| 75 | `CCc1nc2ccccc2n1C(CC)C(=O)N(C)Cc1nc(C)c[nH]1` (stereo not drawn) | 6.466% | -30.64% |
| 76 | `CC(=O)N1CCCC(Cc2cnc(-n3ccnc3)cn2)C1` (stereo not drawn) | 3.36% | -0.1843% |
| 77 | `N#Cc1ccc(SCCC(=O)O)cc1` | 9.307% | -4.192% and 2.775% |
| 78 | `Cc1cccc(C)c1CCNC(=O)N1CCCC2(C1)OCCO2` | -23.23% and 4.078% | 29.53% |
| 79 | `COCCn1cc(C(=O)N2CCCC2c2cc(C)no2)ccc1=O` (stereo not drawn) | 15.7% | -21.88% |
| 80 | `O=C(O)C(F)(F)F.[H][C@@]12CCN(Cc3scnc3C)C[C@]1(C(=O)NC)CCO2` | -11.08% | -15.95% |
| 81 | `O=C(O)C(F)(F)F.O=C(c1ccccc1)N1CCC[C@]2(C[C@@H](Oc3ncccc3F)CO2)C1` | -13.13% | -47.87% |
| 82 | `Cc1cc(NS(=O)(=O)c2ccccc2F)ccc1-n1cccc1C(=O)O` | -3.05% | -5.321% and -13.76% |
| 83 | `CC(c1cccs1)N(C)C(=O)c1cc(CN(C)Cc2ccccc2)on1` (stereo not drawn) | 0.8597% | 18.76% and -1.068% |